Test results as given in patent publication US20230365651A1.
These are yes or no findings as the source states them, for the method shown. A result given as binding can be weak or reduced; the word gives no strength. One block for each binder: values may come before it.

How the values were obtained:
HLA-A*01:01 (human) = experiment: UV peptide exchange, anti-b2m ELISA
HLA-A*24:02 (human) = experiment: UV peptide exchange, anti-b2m ELISA
HLA-B*08:01 (human) = experiment: pMHC stability, b2m dissociation half-life at 37 C

binding (HLA-A*01:01 (human)): binds
B1: … (SEQ ID NO: 292) (peptide)
peptide: NVTMKVVSVLY

binding (HLA-A*24:02 (human)): binds
B2: … (SEQ ID NO: 246) (peptide)
peptide: RYLAVVHAVF

binding (HLA-B*08:01 (human)): binds
B3: … (SEQ ID NO: 159) (peptide)
peptide: VLKHKLDEL

binding (HLA-A*01:01 (human)): binds
B4: … (SEQ ID NO: 288) (peptide)
peptide: SPVTSVHGGTY

binding (HLA-B*08:01 (human)): binds
B5: … (SEQ ID NO: 170) (peptide)
peptide: YLLEKSRVI

binding (HLA-A*01:01 (human)): binds
B6: … (SEQ ID NO: 115) (peptide)
peptide: FVDNQYWRY

binding (HLA-B*08:01 (human)): binds
B7: … (SEQ ID NO: 161) (peptide)
peptide: ALKTTTTAL

binding (HLA-B*08:01 (human)): binds
B8: … (SEQ ID NO: 172) (peptide)
peptide: KLKERNREL

binding (HLA-B*08:01 (human)): binds
B9: … (SEQ ID NO: 166) (peptide)
peptide: TPKLRETSI

binding (HLA-A*01:01 (human)): binds
B10: … (SEQ ID NO: 31) (peptide)
peptide: LLDEGAMLLY

binding (HLA-B*08:01 (human)): binds
B11: YPKARLAF (SEQ ID NO: 160) (peptide)
peptide: YPKARLAF

binding (HLA-A*01:01 (human)): binds
B12: … (SEQ ID NO: 112) (peptide)
peptide: TVTGAEQIQY

binding (HLA-A*01:01 (human)): binds
B13: … (SEQ ID NO: 289) (peptide)
peptide: RWEKTDLTY

binding (HLA-A*24:02 (human)): binds
B14: … (SEQ ID NO: 255) (peptide)
peptide: VFVSFSSLF

binding (HLA-B*08:01 (human)): binds
B15: FAFRKEAL (SEQ ID NO: 171) (peptide)
peptide: FAFRKEAL

binding (HLA-A*01:01 (human)): binds
B16: … (SEQ ID NO: 116) (peptide)
peptide: VLLDEGAMLLY

binding (HLA-A*24:02 (human)): binds
B17: … (SEQ ID NO: 81) (peptide)
peptide: VYNHTTRPL

binding (HLA-B*08:01 (human)): binds
B18: … (SEQ ID NO: 164) (peptide)
peptide: SIKTKSAEM

binding (HLA-A*24:02 (human)): binds
B19: … (SEQ ID NO: 16) (peptide)
peptide: IYSPQFSRL

binding (HLA-A*24:02 (human)): binds
B20: … (SEQ ID NO: 79) (peptide)
peptide: SYNEHWNYL

binding (HLA-A*24:02 (human)): binds
B21: … (SEQ ID NO: 18) (peptide)
peptide: KYPVHIYRL

binding (HLA-A*24:02 (human)): binds
B22: … (SEQ ID NO: 15) (peptide)
peptide: VYHDDKQPTF

binding (HLA-A*24:02 (human)): binds
B23: … (SEQ ID NO: 78) (peptide)
peptide: SFAPRSAVF

binding (HLA-A*24:02 (human)): binds
B24: … (SEQ ID NO: 252) (peptide)
peptide: LYQPRASEM

binding (HLA-B*08:01 (human)): binds
B25: LPKLAGLL (SEQ ID NO: 158) (peptide)
peptide: LPKLAGLL

binding (HLA-A*24:02 (human)): binds
B26: … (SEQ ID NO: 12) (peptide)
peptide: KYEKIFEML

binding (HLA-A*24:02 (human)): binds
B27: RYGPVFTV (SEQ ID NO: 77) (peptide)
peptide: RYGPVFTV

binding (HLA-A*24:02 (human)): binds
B28: … (SEQ ID NO: 80) (peptide)
peptide: TAYMVSVAAF

binding (HLA-A*24:02 (human)): binds
B29: … (SEQ ID NO: 11) (peptide)
peptide: SYSDLHYGF

binding (HLA-A*01:01 (human)): binds
B30: … (SEQ ID NO: 290) (peptide)
peptide: DMDEEIEAEY

binding (HLA-A*01:01 (human)): binds
B31: … (SEQ ID NO: 113) (peptide)
peptide: QLDSNRLTY

binding (HLA-A*24:02 (human)): binds
B32: … (SEQ ID NO: 17) (peptide)
peptide: RFTTMLSTF

binding (HLA-A*24:02 (human)): binds
B33: … (SEQ ID NO: 76) (peptide)
peptide: KYVAELSLL

binding (HLA-B*08:01 (human)): binds
B34: … (SEQ ID NO: 157) (peptide)
peptide: EAMKRLSYI

binding (HLA-A*24:02 (human)): binds
B35: … (SEQ ID NO: 14) (peptide)
peptide: FYFPTPTVL

binding (HLA-A*24:02 (human)): binds
B36: … (SEQ ID NO: 249) (peptide)
peptide: VYTPTLGTL

binding (HLA-A*24:02 (human)): binds
B37: … (SEQ ID NO: 13) (peptide)
peptide: VYTFLSSTL

binding (HLA-B*08:01 (human)): binds
B38: QAKTHSTL (SEQ ID NO: 162) (peptide)
peptide: QAKTHSTL

binding (HLA-B*08:01 (human)): binds
B39: … (SEQ ID NO: 169) (peptide)
peptide: TSMPRSSAM

binding (HLA-A*01:01 (human)): binds
B40: … (SEQ ID NO: 114) (peptide)
peptide: VMEQSAGIMY

binding (HLA-A*24:02 (human)): binds
B41: … (SEQ ID NO: 19) (peptide)
peptide: KYVKVFHQF

binding (HLA-B*08:01 (human)): binds
B42: MYKMKKPI (SEQ ID NO: 394) (peptide)
peptide: MYKMKKPI

binding (HLA-A*01:01 (human)): binds
B43: … (SEQ ID NO: 291) (peptide)
peptide: ETIRSVGYY

binding (HLA-A*24:02 (human)): binds
B44: … (SEQ ID NO: 10) (peptide)
peptide: RYSDSVGRVSF

binding (HLA-A*24:02 (human)): binds
B45: … (SEQ ID NO: 82) (peptide)
peptide: SYFRGFTLI

binding (HLA-B*08:01 (human)): binds
B46: QGLLRPVF (SEQ ID NO: 163) (peptide)
peptide: QGLLRPVF

binding (HLA-B*08:01 (human)): binds
B47: … (SEQ ID NO: 167) (peptide)
peptide: TSHERLTTL
